Test results taken from paper PMC12040169 (PLOS Biology, 2025).
This is one part of the list.

system: T1, CTL2-GFP (C. trachomatis L2/434/Bu, GFP-expressing); set-up: species or system HeLa; Intracellular C. trachomatis growth in HeLa cells, bulk GFP fluorescence relative to DMSO; settings: bulk GFP, single well; 28.5 h, 10 µM; inhibitor
T1 construct: L2/434/Bu, GFP-expressing

Row | SMILES | % of control remaining [%]
1 | CCN(CC)CCN1CCN(c2cncc(-c3cccs3)n2)CC1 [CBK065703] | 141.692
2 | Cc1cc(S(=O)(=O)N2CCN(CCO)C(C)C2)sc1Cl (centres unmarked) [CBK304074] | 115.932
3 | CC(C)n1c(=O)n(CC(=O)NCCc2ccccc2)c2cccnc21 [CBK283701] | 135.686
4 | Nn1c(SCc2ccc(C(=O)O)cc2)nnc1-c1ccccn1 [CBK267553] | 110.464
5 | O=C(O)c1cccc(OCCNS(=O)(=O)c2ccc(N3CCCC3=O)cc2)c1 [CBK299779] | 136.073
6 | CC(=O)Nc1cccc(Oc2nccnc2-c2ccc(F)cc2)c1 [CBK106900] | 123.324
7 | CCC(=O)N1CCCC1c1nc(C)c2c(n1)N(CCc1ccccc1OC)CCC2 (centres unmarked) [CBK286246] | 128.34
8 | O=C1CCC(=O)N1CCOc1nccnc1OC1CCN(CCc2ccccn2)CC1 [CBK084360] | 93.1505
9 | Cn1nnc2cc(NC(=O)NCc3csc(N4CCOCC4)n3)ccc21 [CBK307492] | 135.766
10 | CSc1nnc(-c2cccs2)n1C [CBK067702] | 121.972
11 | CS(=O)(=O)Nc1cc2ccccc2c(-c2cccnc2)n1 [CBK085747] | 112.999
12 | O=C(O)c1ccc(S(=O)(=O)c2ccc(C(=O)O)c(C(=O)O)c2)cc1C(=O)O [CBK022872] | 103.743
13 | COc1ccc(C2=NNC(=O)C(c3ccc(OC)cc3)C2)cc1 (centres unmarked) [CBK287908] | 125.271
14 | Nc1cc(-c2ccccc2)nn1-c1ccc(C(=O)O)cc1 [CBK286565] | 130.457
15 | O=C(COc1ccc(S(=O)(=O)N2CCOCC2)cc1)NCc1ccco1 [CBK268377] | 105.872
16 | COCCNC(=O)c1cc(-c2cccc(C(=O)N(C)C)c2)cnc1N1CCOCC1 [CBK076464] | 107.562
17 | CCn1cc(S(=O)(=O)Nc2cc(C)on2)cn1 [CBK270302] | 128.359
18 | N/C(=N\OC(=O)CCCc1ccccc1)c1ccc(Cl)cc1 [CBK264454] | 104.492
19 | O=C(c1cc[nH]n1)N1CCc2nc(-c3cccc(F)c3)sc2C1 [CBK281915] | 145.194
20 | COc1ccc(-n2ncc3c2CCCN(C(=O)C2CCCC2)C3)cc1 [CBK284501] | 90.4549
21 | O=C(O)c1ccc(NC(=O)c2cn(-c3ccccc3)nc2-c2cc3ccccc3oc2=O)cc1 [CBK266432] | 148.882
22 | CS(=O)(=O)N(Cc1ccc(Cl)cc1)c1ccc(C(=O)N2CCC(C(N)=O)CC2)cc1 [CBK265327] | 113.56
23 | COc1ccccc1OCCOc1cccc(/C=N/n2cnnc2)c1 [CBK263288] | 115.292
24 | Cn1ccnc1SCC(=O)Nc1ccc(I)cc1 [CBK057541] | 142.223
25 | Cc1nc(C2CCCC2)cc([C@H]2CN3CC[C@H]2C[C@@H]3CNC(=O)c2ccco2)n1 [CBK289120] | 125.939
26 | CC(=O)Nc1ccc(C(=O)CSc2nc(-c3ccccc3)cs2)cc1 [CBK268038] | 129.976
27 | O=C(CSCc1nc(O)c2c3c(sc2n1)CCCC3)NC1CCCCC1 [CBK265684] | 100

Row | SMILES | % of control remaining [%]
28 | COc1ccc(-n2cnc3ccccc3c2=O)cc1 [CBK288145] | 144.193
29 | OCC1CCCN1c1cncc(-c2ccc3ccccc3c2)n1 (centres unmarked) [CBK037197] | 102.185
30 | CCn1cc(C(=O)N2CCCCC2c2nc3ccccc3[nH]2)c(C)n1 (centres unmarked) [CBK283778] | 136.952
31 | COc1cc(CN2CCN(C(=O)c3ccccc3)CC2)cc(OC)c1O [CBK263462] | 90.0528
32 | Cc1cc(-c2cc(=O)n(Cc3ccccc3F)nc2C2CC2)on1 [CBK284366] | 98.0603
33 | O=C(NC[C@H]1CC[C@H](c2cc(C(=O)N3CCOCC3)c3ccccc3n2)CC1)C1CCCC1 [CBK285979] | 131.564
34 | Cc1nc(SCC(=O)N2CCC(C)CC2)c2c3c(sc2n1)CCC3 [CBK265944] | 134.088
35 | COc1cc(OC)cc(C(=O)N2CCC3(CC2)CC(=O)c2cc(C)c(C)cc2O3)c1 [CBK164201] | 147.402
36 | Cc1cc(-c2cc3nc(C)c(C)c(O)n3n2)c(C)o1 [CBK284500] | 127.44
37 | Cc1ccc(-c2ncc(OCc3ccccc3)nc2N)c(C)c1 [CBK145129] | 101.266
38 | COC(=O)CCc1ccc(S(=O)(=O)N2CCN(Cc3csc(-c4ccccc4)n3)CC2)cc1 [CBK062812] | 106.047
39 | CC(C)C(=O)NCCN1CCOCC1 [CBK034322] | 112.479
40 | CCNS(=O)(=O)c1ccc(CCC(=O)Nc2ccc3c(c2)OCCO3)cc1 [CBK268255] | 100.058
41 | OC(COc1cccc2c1CCCC2)CN1CCC(Cc2ccccc2)CC1 (centres unmarked) [CBK003829] | 149.825
42 | CC1CCN(S(=O)(=O)c2cc(C(=O)OCC(=O)c3ccccc3)c(Cl)cc2Cl)CC1 [CBK264470] | 114.657
43 | O=C(NCCN1CCCCC1)C1CC(=O)N(c2ccccc2F)C1 (centres unmarked) [CBK305148] | 127.365
44 | CS(=O)(=O)N(CC(=O)O)c1cccc(C(F)(F)F)c1 [CBK286988] | 139.571
45 | COc1ccc(Br)cc1S(=O)(=O)Nc1c(C(=O)O)sc2ncccc12 [CBK049978] | 109.526
46 | COc1ccnc(N2CCCN(CC(N)=O)CC2)n1 [CBK083992] | 128.479
47 | COc1ccc(-c2cc([C@H]3CN4CC[C@H]3C[C@@H]4CNC(C)=O)n(C)n2)cc1OC [CBK288757] | 124.023
48 | COc1ccc(Br)cc1S(=O)(=O)Nc1ccsc1C(=O)Nc1ccc(F)cc1 [CBK004593] | 78.0333
49 | Cc1ccc(C(=O)N2CN(C(=O)CNC3CC3)CC2(C)C)cc1 [CBK089574C] | 124.146
50 | CC(=O)Nc1ccc(S(=O)(=O)N2CCCC(CO)C2)cc1 (centres unmarked) [CBK262108] | 120.991
51 | Cc1ccc(C(=O)O)c(NC(=O)c2ccccc2F)c1 [CBK126744] | 74.6541
52 | COc1ccc(C(=O)N2CCC3(CCN(C(=O)c4ccc5[nH]c(=O)[nH]c5c4)C3)C2)cc1OC (centres unmarked) [CBK131793] | 54.731
53 | CCn1c(=O)n(CC(=O)N(C)C)c2cccnc21 [CBK282299] | 143.624
54 | Cc1ccc(N2C(=O)CSC2c2ccc(Cl)cc2Cl)cc1 (centres unmarked) [CBK025673] | 103.377

Row | SMILES | % of control remaining [%]
55 | O=C(CSc1ccccn1)Nc1cccc(Cl)c1Cl [CBK057679] | 122.368
56 | Oc1ccc(Nc2cc(-c3ccc(Cl)cc3)ncn2)cc1 [CBK090751] | 158.986
57 | CCC(C)NC(=O)C1=CCN(S(C)(=O)=O)C1 (centres unmarked) [CBK282861] | 95.8032
58 | CS(=O)(=O)c1ccc(-c2nccnc2N2CCCCC2CO)cc1 (centres unmarked) [CBK037657] | 147.52
59 | CCCS(=O)(=O)Nc1nccnc1N1CCN(c2cnccn2)CC1 [CBK048828] | 95.4807
60 | Cc1c(C(=O)Nc2cccc(S(=O)(=O)NCc3ccco3)c2)cnn1-c1ccccc1 [CBK297762] | 124.042
61 | Nc1nc(NCc2ccccc2)nc(-c2cc(Cl)ccc2O)n1 [CBK074526] | 63.0933
62 | COc1ccc(CCNC(=O)Nc2ccccc2[N+](=O)[O-])cc1 [CBK266497] | 140.251
63 | CCOc1ccccc1NC(=O)Nc1cccc(S(N)(=O)=O)c1 [CBK057282] | 125.741
64 | OCCNc1nccnc1Cl [CBK089793] | 92.9559
65 | CCSc1nc2ccccc2n1C(=O)c1ccc(S(=O)(=O)N2CCCCCC2)cc1 [CBK265825] | 138.749
66 | Nc1ccc(-c2cnc(NCc3ccc4c(c3)OCO4)c(C(=O)Nc3ccc4c(c3)OCCO4)c2)cc1 [CBK138480T] | 70.9408
67 | CC(=O)c1cccc(-c2nc(CC3CCN(C)CC3)nn2CCO)c1 [CBK306645] | 95.4564
68 | O=C(O)C1(Oc2ccc3ncccc3c2)CCN(CC2CCOC2)CC1 (centres unmarked) [CBK307336] | 139.76
69 | Cc1cccc(OCC(=O)NC(=S)Nc2ccccc2N2CCCCC2)c1C [CBK266298] | 141.69
70 | Cc1ccc2oc(C(=O)Nc3ccc(-n4cnnn4)cc3)c(C)c2c1 [CBK287804] | 105.087
71 | Cc1ccc2[nH]c3c(c2c1)CCCC3NCC(O)Cc1ccccc1 (centres unmarked) [CBK263154] | 107.637
72 | CCOC(=O)CC(=O)CSc1nc(C)cc(-c2cccnc2)c1C#N [CBK267460] | 160.885
73 | Cc1nccn1-c1ccc(NC(=O)C2CC(=O)N(C3CCCC3)C2)cc1F (centres unmarked) [CBK298286] | 158.255
74 | CC(COC(C)(C)C)Oc1nccnc1OCc1ccc(Cl)c(Cl)c1 (centres unmarked) [CBK161607] | 141.629
75 | Cn1cc(NC(=O)N2CCCN(Cc3ccccn3)CC2)nn1 [CBK307034] | 105.87
76 | COc1ccccc1Cn1ncc2c1CCCC2NC(=O)C1CCC1 (centres unmarked) [CBK282895] | 85.5675
77 | Cc1cc(C[C@@H]2COC[C@H]2NCCc2ccccc2)on1 [CBK284882] | 127.905
78 | O=C(C1CCCC1)N1CCC(c2nnc3n2CCCCC3)CC1 [CBK284612] | 145.404
79 | COc1ccc(CN2CCCN(C(=O)c3ccnc(Cl)c3)CC2)cc1 [CBK305364] | 117.298
80 | Nc1nc2c(nc(Br)n2[C@H]2C[C@@H](O)[C@@H](CO)O2)c(=O)[nH]1 [CBK201333] | 197.745

Some of the entries so far, with tabs:
Row	SMILES	% of control remaining [%]
61	Nc1nc(NCc2ccccc2)nc(-c2cc(Cl)ccc2O)n1 [CBK074526]	63.0933
62	COc1ccc(CCNC(=O)Nc2ccccc2[N+](=O)[O-])cc1 [CBK266497]	140.251
63	CCOc1ccccc1NC(=O)Nc1cccc(S(N)(=O)=O)c1 [CBK057282]	125.741
64	OCCNc1nccnc1Cl [CBK089793]	92.9559

Compounds from the list above that have bromine, in the order listed:
Row | SMILES | % of control remaining [%]
45 | COc1ccc(Br)cc1S(=O)(=O)Nc1c(C(=O)O)sc2ncccc12 [CBK049978] | 109.526
48 | COc1ccc(Br)cc1S(=O)(=O)Nc1ccsc1C(=O)Nc1ccc(F)cc1 [CBK004593] | 78.0333
80 | Nc1nc2c(nc(Br)n2[C@H]2C[C@@H](O)[C@@H](CO)O2)c(=O)[nH]1 [CBK201333] | 197.745
